Test [1] concerns the target T1, Human recombinant PEAR1 extracellular part (platelet and endothelial aggregation receptor 1), His-tagged (human) (UniProt Q5VY43).
T1 sequence: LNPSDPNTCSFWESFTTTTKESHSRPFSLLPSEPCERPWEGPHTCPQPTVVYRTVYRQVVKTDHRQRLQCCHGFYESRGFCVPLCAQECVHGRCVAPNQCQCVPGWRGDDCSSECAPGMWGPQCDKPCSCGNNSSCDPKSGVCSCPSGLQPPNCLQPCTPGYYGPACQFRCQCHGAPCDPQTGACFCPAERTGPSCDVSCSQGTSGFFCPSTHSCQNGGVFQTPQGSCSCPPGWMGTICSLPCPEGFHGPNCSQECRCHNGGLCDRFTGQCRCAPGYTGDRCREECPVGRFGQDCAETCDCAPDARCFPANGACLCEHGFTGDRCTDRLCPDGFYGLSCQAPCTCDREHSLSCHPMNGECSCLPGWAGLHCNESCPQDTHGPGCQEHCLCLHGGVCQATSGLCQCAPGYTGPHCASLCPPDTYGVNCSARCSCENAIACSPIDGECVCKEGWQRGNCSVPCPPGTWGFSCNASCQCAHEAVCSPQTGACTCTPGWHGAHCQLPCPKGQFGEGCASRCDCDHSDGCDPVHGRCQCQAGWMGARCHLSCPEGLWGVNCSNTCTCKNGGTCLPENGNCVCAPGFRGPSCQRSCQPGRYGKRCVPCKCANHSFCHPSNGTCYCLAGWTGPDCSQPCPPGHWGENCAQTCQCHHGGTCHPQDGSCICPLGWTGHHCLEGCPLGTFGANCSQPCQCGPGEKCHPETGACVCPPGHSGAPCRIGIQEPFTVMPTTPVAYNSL
As to the kind of experiment: affinity purification with mass spectrometry; recombinant human PEAR1 or EGFR extracellular part (1000 nM) immobilised on Ni-NTA magnetic beads, incubated with 24-hour conditioned medium of tumor cells for 1 h at RT; control Ni-NTA beads in parallel; on-bead trypsin digest, LC-MS/MS; only the target purified.

Chains of the proteins cited; added tags and fusions are not shown.
UniProt P51570: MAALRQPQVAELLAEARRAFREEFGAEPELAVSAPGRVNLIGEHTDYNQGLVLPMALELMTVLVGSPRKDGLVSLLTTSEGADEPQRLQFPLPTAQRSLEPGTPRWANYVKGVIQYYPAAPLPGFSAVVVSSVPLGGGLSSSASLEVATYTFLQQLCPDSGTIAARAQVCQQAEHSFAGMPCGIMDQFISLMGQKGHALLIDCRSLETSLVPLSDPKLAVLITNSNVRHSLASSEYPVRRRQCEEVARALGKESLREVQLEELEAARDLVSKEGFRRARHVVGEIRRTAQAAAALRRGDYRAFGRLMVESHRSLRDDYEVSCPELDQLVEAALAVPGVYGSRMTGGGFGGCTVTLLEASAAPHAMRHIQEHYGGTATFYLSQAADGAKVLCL
UniProt P14618: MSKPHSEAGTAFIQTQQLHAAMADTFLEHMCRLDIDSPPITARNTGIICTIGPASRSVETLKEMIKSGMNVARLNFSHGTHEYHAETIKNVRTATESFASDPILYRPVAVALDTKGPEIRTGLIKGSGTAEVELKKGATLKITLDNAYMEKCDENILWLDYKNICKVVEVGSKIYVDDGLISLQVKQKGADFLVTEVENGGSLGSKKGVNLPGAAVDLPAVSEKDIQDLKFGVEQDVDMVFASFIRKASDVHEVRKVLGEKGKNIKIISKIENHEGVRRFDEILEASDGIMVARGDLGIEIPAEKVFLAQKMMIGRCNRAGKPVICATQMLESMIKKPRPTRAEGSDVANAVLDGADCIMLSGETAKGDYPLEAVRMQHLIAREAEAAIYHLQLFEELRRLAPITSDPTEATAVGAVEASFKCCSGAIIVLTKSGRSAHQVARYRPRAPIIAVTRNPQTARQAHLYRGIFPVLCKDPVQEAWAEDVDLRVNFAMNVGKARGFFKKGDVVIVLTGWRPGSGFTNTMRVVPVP

Test [2] concerns the target Extracellular part of the human EGF receptor (EGFR), recombinant (human) (UniProt P00533). Described as above.

These are yes or no findings as the source states them, for the method shown. In cells and extracts the contact can be indirect. These calls come from enrichment with a bait or labelling near it, and not all partners need be listed. No binding means not detected with the bait. For part of these data: Where a sequence is shown, tags or fusion partners need not be part of it.

In the case of “GALK1 in conditioned medium of tumor cells (from UniProt P51570 1-392)”, the binding entry is “no binding (tested: 1000 nM PEAR1 immobilised)” in test [1] and “no binding (tested: 1000 nM EGFR immobilised)” in test [2].

On to “PKM in conditioned medium of tumor cells (from UniProt P14618 1-531)”, for which the binding result was “no binding (tested: 1000 nM PEAR1 immobilised)” in test [1] and “no binding (tested: 1000 nM EGFR immobilised)” in test [2].

B1: Semaphorin 6D (SEMA6D) in conditioned medium of tumor cells (protein, UniProt Q8NFY4 21-662)
chain: VSFPEDDEPLNTVDYHYSRQYPVFRGRPSGNESQHRLDFQLMLKIRDTLYIAGRDQVYTVNLNEMPKTEVIPNKKLTWRSRQQDRENCAMKGKHKDECHNFIKVFVPRNDEMVFVCGTNAFNPMCRYYRLSTLEYDGEEISGLARCPFDARQTNVALFADGKLYSATVADFLASDAVIYRSMGDGSALRTIKYDSKWIKEPHFLHAIEYGNYVYFFFREIAVEHNNLGKAVYSRVARICKNDMGGSQRVLEKHWTSFLKARLNCSVPGDSFFYFDVLQSITDIIQINGIPTVVGVFTTQLNSIPGSAVCAFSMDDIEKVFKGRFKEQKTPDSVWTAVPEDKVPKPRPGCCAKHGLAEAYKTSIDFPDETLSFIKSHPLMDSAVPPIADEPWFTKTRVRYRLTAISVDHSAGPYQNYTVIFVGSEAGMVLKVLAKTSPFSLNDSVLLEEIEAYNHAKCSAENEEDKKVISLQLDKDHHALYVAFSSCIIRIPLSRCERYGSCKKSCIASRDPYCGWLSQGSCGRVTPGMLAEGYEQDTEFGNTAHLGDCHEILPTSTTPDYKIFGGPTSDMEVSSSSVTTMASIPEITPKVIDTWRPKLTSSRKFVVQDDPNTSDFTDPLSGIPKGVRWEVQSGESNQMVHMN
B1: the binding result in test [1] is recorded as “binds”; in test [2] it was “no binding (tested: 1000 nM EGFR immobilised)”.
